Results are given in words; binding and its absence hold for the method and conditions named. A result given as binding can be weak or reduced; the word gives no strength.
Assays:
[1] = biological target: human GFRα4, GPI-anchored isoform a (GFRα4a) (human); test: [125I]PSPN binding to GFRA4a-transfected Neuro-2a cells
[2] = biological target: human GFRα4, GPI-anchored isoform a (GFRα4a) (human); test: chemical cross-linking of [125I]PSPN on GFRA4-transfected cells
[3] = biological target: human GFRα4, GPI-anchored isoform a (GFRα4a) (human); test: chemical cross-linking on GFRA4a-transfected CHO cells (no Ret)
[4] = biological target: human GFRα4, GPI-anchored isoform a (GFRα4a) (human); test: chemical cross-linking of [125I]PSPN to GFRA4a-transfected CHO cells (no Ret), SDS-PAGE
[5] = biological target: human GFRα4, GPI-anchored isoform a (GFRα4a) (human); test: cross-linking of [125I]PSPN in hGFRα4/Neuro-2a cells, immunoprecipitation with Ret antibodies, SDS-PAGE

Measured: binding

B1: human persephin (PSPN) (ligand, UniProt O60542 61-156, looked up)
chain: ALSGPCQLWSLTLSVAELGLGYASEEKVIFRYCAGSCPRGARTQHGLALARLQGQGRAHGGPCCRPTRYTDVAFLDDRHRWQRLPQLSAAACGCGG
notes: Cross-linking gels show monomer (approx. 14-16 kDa) and dimer (32 kDa) bands; also called unlabeled PSPN
binds: all assays above

Source: US7488588 (LICENTIA, dated 2009)
